Experimental data reported in patent US20230287391A1, “KRAB FUSION REPRESSORS AND METHODS AND COMPOSITIONS FOR REPRESSING GENE EXPRESSION” (THE GOVERNING COUNCIL OF THE UNIVERSITY OF TORONTO, priority 2020, published 2023).
These are yes or no findings as the source states them, for the method shown. Some entries that bind do so weakly or less than the wild type.

Protein sequences, listed by entry. Tags and fused reporters are not part of them. Lines headed by an entry give the natural chain unless they say otherwise; changes in a name come on top. Residues count along the entry.
UniProt Q13263: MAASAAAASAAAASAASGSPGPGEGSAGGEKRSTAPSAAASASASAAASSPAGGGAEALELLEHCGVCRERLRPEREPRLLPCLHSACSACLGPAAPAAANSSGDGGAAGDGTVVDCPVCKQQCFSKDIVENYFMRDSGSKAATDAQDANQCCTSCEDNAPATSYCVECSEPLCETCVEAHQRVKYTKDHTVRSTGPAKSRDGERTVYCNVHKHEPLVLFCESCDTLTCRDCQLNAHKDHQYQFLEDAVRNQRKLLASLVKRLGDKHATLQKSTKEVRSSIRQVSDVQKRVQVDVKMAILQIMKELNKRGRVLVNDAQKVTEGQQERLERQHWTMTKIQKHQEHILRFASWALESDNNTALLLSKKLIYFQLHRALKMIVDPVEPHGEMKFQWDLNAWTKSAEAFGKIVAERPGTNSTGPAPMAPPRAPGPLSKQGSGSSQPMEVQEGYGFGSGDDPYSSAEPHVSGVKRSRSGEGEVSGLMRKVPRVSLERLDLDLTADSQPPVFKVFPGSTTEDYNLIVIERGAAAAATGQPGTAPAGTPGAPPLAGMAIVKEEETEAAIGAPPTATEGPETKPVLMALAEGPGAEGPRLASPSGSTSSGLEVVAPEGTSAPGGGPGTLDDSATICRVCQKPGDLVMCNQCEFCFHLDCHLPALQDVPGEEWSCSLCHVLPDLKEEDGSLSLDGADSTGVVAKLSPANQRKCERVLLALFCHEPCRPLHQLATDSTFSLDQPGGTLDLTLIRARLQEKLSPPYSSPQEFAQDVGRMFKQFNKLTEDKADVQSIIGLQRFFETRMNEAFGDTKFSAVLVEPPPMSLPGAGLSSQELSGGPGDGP
UniProt P21506, residues 1-105: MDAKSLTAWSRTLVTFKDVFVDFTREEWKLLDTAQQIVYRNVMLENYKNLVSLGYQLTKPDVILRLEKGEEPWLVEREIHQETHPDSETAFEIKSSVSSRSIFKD
UniProt Q96PE6: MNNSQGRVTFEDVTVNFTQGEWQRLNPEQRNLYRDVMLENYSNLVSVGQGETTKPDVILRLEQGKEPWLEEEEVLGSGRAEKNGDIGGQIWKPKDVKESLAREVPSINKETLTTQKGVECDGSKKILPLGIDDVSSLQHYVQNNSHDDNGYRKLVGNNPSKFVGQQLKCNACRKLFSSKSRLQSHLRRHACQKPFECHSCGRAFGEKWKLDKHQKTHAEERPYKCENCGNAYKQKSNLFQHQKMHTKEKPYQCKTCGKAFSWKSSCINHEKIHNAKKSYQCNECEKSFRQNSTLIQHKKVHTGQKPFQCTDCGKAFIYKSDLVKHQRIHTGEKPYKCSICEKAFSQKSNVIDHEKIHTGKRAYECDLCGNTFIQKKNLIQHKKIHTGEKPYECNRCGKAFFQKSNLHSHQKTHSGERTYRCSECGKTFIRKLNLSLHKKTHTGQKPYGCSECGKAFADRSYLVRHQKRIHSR

Molecular target: NLuc-tagged TRIM28 (tag at the C-terminus) (UniProt Q13263)
Experiment: LUMIER in 293T cells: KRAB-EGFP-3xFLAG bait captured on anti-FLAG plate, luminescence of NLuc-TRIM28

KOX1 KRAB domain C-terminally tagged with EGFP-3xFLAG (from UniProt P21506 1-105)
binding: binds

ZIM3 KRAB domain C-terminally tagged with EGFP-3xFLAG (from UniProt Q96PE6 1-100)
binding: binds
